Laboratory results published in article PMC10012460.

Chains of the proteins cited; added tags and fusions are not shown.
UniProt Q9Z1E3: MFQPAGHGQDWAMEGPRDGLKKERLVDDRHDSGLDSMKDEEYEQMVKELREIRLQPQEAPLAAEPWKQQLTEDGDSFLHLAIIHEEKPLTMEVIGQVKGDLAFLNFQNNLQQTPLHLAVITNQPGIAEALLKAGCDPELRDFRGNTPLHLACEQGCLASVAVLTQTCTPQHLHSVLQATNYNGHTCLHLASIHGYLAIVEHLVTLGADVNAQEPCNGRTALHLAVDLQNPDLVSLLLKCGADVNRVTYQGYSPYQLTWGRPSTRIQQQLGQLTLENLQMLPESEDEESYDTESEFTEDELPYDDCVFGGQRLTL

Biological target: T1, Ubiquitin-specific protease 13 (USP13), endogenous in BV2 microglia (mouse (endogenous in BV2)) (UniProt Q5BKP2)
T1 sequence: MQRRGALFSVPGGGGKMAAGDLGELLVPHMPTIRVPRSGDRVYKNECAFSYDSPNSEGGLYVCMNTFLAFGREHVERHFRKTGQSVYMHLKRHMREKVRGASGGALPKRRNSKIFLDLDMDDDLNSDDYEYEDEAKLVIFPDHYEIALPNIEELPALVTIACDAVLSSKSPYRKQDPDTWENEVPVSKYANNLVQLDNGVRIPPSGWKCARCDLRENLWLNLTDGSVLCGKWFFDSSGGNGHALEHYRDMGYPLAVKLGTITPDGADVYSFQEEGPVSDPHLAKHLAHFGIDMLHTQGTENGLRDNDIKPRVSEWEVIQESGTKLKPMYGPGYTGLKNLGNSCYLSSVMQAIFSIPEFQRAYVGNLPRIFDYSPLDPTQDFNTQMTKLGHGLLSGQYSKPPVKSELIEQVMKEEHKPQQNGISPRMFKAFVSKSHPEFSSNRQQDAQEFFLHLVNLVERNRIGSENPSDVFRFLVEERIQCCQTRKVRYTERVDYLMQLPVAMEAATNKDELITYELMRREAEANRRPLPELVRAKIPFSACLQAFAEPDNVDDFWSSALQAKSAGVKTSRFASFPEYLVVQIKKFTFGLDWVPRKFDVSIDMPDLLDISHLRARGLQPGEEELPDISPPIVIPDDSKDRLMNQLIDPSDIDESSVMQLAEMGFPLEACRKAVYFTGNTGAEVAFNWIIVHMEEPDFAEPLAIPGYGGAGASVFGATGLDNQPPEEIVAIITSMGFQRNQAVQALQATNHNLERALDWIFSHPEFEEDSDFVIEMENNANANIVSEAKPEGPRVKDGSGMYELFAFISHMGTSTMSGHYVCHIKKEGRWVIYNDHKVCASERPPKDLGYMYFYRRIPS
Test: affinity purification with mass spectrometry; IP coupled with mass spectrum (IP/MS) to find proteins that interact with USP13; in microglia (by the discussion)

Substance: NF-κB inhibitor alpha (IκBα), endogenous in BV2 microglia (from UniProt Q9Z1E3 1-314)
- binding: binds

No constants are given. Whether binding was seen depends on the method and setting. Binding seen in cells or lysates may run through a third protein. A yes stands for co-enrichment or nearness to the bait. Other partners may have been found.
